Measured values reported in PubChem BioAssay AID248 (DTP/NCI, 2004).
The list is a part of this screen's results and no random one: it covers a few groups of compounds. Other doses and runs of a compound may be missing. T/C gives the treated animals as a percentage of the vehicle group. Some entries give survivors of the animals treated and no T/C: the source holds a T/C of zero for them, seemingly a mark for toxic or unscored doses. Some survivor counts are full or nearly so, which does not show that the dose was tolerated: the source hardly ever lists a survival T/C far under the control, and the zero likely stands for such cases as well. Survivors were counted at the toxicity check, usually on the fifth day, unless a day is given; later deaths do not show. Schedule codes are those of the source, read here as Q, the interval in days (D) or hours (H), X, the number of doses. Some schedules carry Z or #; the key to these is not given. Where survival is the endpoint, this PubChem deposit counts one and a half times the control or more as active, and values a quarter to a half above the control carry no call in these data; other NCI protocols may use other cut-offs. Some entries were tested several times; their values stand side by side, smallest first. Some T/C values are marked as having no survivor count here; that says nothing about deaths at the dose. Some T/C values are followed by the survivors on the day toxicity was checked, most often the fifth; where neither a count nor a note follows, no animal had died by that day.

Tested on: L1210 leukemia ip in BDF1 mice, survival T/C
Experiment: NCI In Vivo Anticancer Drug Screen. Data for tumor model L1210 Leukemia (intraperitoneal) in B6D2F1 (BDF1) mice
Details: T/C endpoint: mean survival time, higher T/C = longer survival

O=P1(N(CCCl)CCCl)OCC2CCCN21 (stereo not given)
T/C (dose: 22.5 mg/kg/injection, schedule: Q01DX009 (ip), vehicle: saline): 93 % of control [5 of 6 alive] | T/C (dose: 31.25 mg/kg/injection, schedule: Q01DX Z (ip), vehicle: saline): 103 % of control | T/C (dose: 62.5 mg/kg/injection, schedule: Q01DX Z (ip), vehicle: saline): 108 % of control | T/C (dose: 90.0 mg/kg/injection, schedule: Q01DX009 (ip), vehicle: saline): 96 % of control | T/C (dose: 90.0 mg/kg/injection, schedule: Q01DX Z (ip), vehicle: saline): 96 % of control | T/C (dose: 125.0 mg/kg/injection, schedule: Q01DX Z (ip), vehicle: saline): 103 % of control | T/C (dose: 135.0 mg/kg/injection, schedule: Q01DX Z (ip), vehicle: saline): 100 % of control | T/C (dose: 204.0 mg/kg/injection, schedule: Q01DX Z (ip), vehicle: saline): 121 % of control | T/C (dose: 220.0 mg/kg/injection, schedule: Q01DX001 (ip), vehicle: saline): 124 % of control | T/C (dose: 250.0 mg/kg/injection, schedule: Q01DX Z (ip), vehicle: saline): 117 % of control | T/C (dose: 400.0 mg/kg/injection, schedule: Q01DX001 (ip), vehicle: saline): 126 % of control | T/C (dose: 459.0 mg/kg/injection, schedule: Q01DX Z (ip), vehicle: saline): 98 % of control [4 of 6 alive] | survivor count (dose: 500.0 mg/kg/injection, schedule: Q01DX Z (ip), vehicle: saline): 0 of 6 | T/C (dose: 600.0 mg/kg/injection, schedule: Q01DX001 (ip), vehicle: saline): 126 % of control [4 of 6 alive] | survivor count (dose: 689.0 mg/kg/injection, schedule: Q01DX Z (ip), vehicle: saline): 0 of 6

CCC12COP(OC1)OC2
T/C (dose: 75.0 mg/kg/injection, schedule: Q01DX001 (ip), vehicle: other): 96 % of control

O=[N+]([O-])c1cc([N+](=O)[O-])c(/C=C/c2cccc([N+](=O)[O-])c2[N+](=O)[O-])cc1/C=C/c1cccc([N+](=O)[O-])c1[N+](=O)[O-]
T/C (dose: 75.0 mg/kg/injection, schedule: Q01DX001 (ip), vehicle: carboxymethylcellulose (CMC)): 93 % of control [survivor count not shown] | T/C (dose: 150.0 mg/kg/injection, schedule: Q01DX001 (ip), vehicle: carboxymethylcellulose (CMC)): 90 % of control [survivor count not shown]

CCCCCCCCP(=O)(Cl)CC (stereo not given)
T/C (dose: 75.0 mg/kg/injection, schedule: Q01DX001 (ip), vehicle: saline): 93 % of control | T/C (dose: 150.0 mg/kg/injection, schedule: Q01DX001 (ip), vehicle: saline): 91 % of control | survivor count (dose: 300.0 mg/kg/injection, schedule: Q01DX001 (ip), vehicle: saline): 0 of 6

NC1CCCCC1.O=P(O)(N(CCCl)CCCl)N1CCCCC1
T/C (dose: 16.0 mg/kg/injection, schedule: Q01DX Z (ip), vehicle: saline): 100 % of control | T/C (dose: 32.0 mg/kg/injection, schedule: Q01DX Z (ip), vehicle: saline): 92 % of control | T/C (dose: 64.0 mg/kg/injection, schedule: Q01DX Z (ip), vehicle: saline): 109 % of control | T/C (dose: 128.0 mg/kg/injection, schedule: Q01DX Z (ip), vehicle: saline): 118 % of control

CC1(C)CC[P+](C)(c2ccccc2)c2ccccc21.F[P-](F)(F)(F)(F)F (stereo not given)
T/C (dose: 3.13 mg/kg/injection, schedule: Q01DX009 (ip), vehicle: saline with Tween-80): 95 % of control | T/C (dose: 6.25 mg/kg/injection, schedule: Q01DX009 (ip), vehicle: saline with Tween-80): 100 % of control | T/C (dose: 12.5 mg/kg/injection, schedule: Q01DX009 (ip), vehicle: saline with Tween-80): 94 and 106 % of control | survivor count (dose: 25.0 mg/kg/injection, schedule: Q01DX009 (ip), vehicle: saline with Tween-80): 2 of 3 | survivor count (dose: 50.0 mg/kg/injection, schedule: Q01DX009 (ip), vehicle: saline with Tween-80): 0 of 3 | survivor count (dose: 100.0 mg/kg/injection, schedule: Q01DX009 (ip), vehicle: saline with Tween-80): 0 of 3 | survivor count (dose: 200.0 mg/kg/injection, schedule: Q01DX009 (ip), vehicle: saline with Tween-80): 0 of 3

CN/C(N)=N/[N+](=O)[O-]
T/C (dose: 75.0 mg/kg/injection, schedule: Q01DX001 (ip), vehicle: Klucel (hydroxypropylcellulose) (HPC)): 92 % of control [survivor count not shown] | T/C (dose: 150.0 mg/kg/injection, schedule: Q01DX001 (ip), vehicle: Klucel (hydroxypropylcellulose) (HPC)): 100 % of control [survivor count not shown] | T/C (dose: 300.0 mg/kg/injection, schedule: Q01DX001 (ip), vehicle: Klucel (hydroxypropylcellulose) (HPC)): 100 % of control [survivor count not shown]
